From article PMC6529632, “Robust Stoichiometry of FliW-CsrA Governs Flagellin Homeostasis and Cytoplasmic Organization in Bacillus subtilis” (mBio, 2019)
For at least one entry, the source does not settle the construct or the ends of the probe. Weaker means in comparison with the reference protein, sequence or condition of that experiment. For some assays here: Where a protein sequence is shown, tags need not be part of it.

Experiments:
[1] = tested on: CsrA-Hetero (CsrA-WT-His6/CsrA-N55D-strep); test: EMSA; settings: FliW added, shift pattern resembles wild type, inhibition; 40 mM Tris-HCl pH 7.5, 4 mM MgCl2, 100 mM KCl, 20 ng/ul yeast RNA, 20 mM DTT, 10% glycerol, 4 U RNase inhibitor, 20 pM RNA, 37 C 30 min (FliW added for a further 5 min); recombinant protein; protein details: His6 (WT chain), Strep-tag (N55D chain); label: internal 32P ([alpha-32P]ATP); probe letters rebuilt from the primers and the genome
CsrA-WT-His6 = target: T1, CsrA-WT-His6 (UniProt P33911); test: EMSA; settings: FliW added, CsrA-bound RNA reduced at roughly equimolar FliW; 40 mM Tris-HCl pH 7.5, 4 mM MgCl2, 100 mM KCl, 20 ng/ul yeast RNA, 20 mM DTT, 10% glycerol, 4 U RNase inhibitor, 20 pM RNA, 37 C 30 min (FliW added for a further 5 min); recombinant protein; residues 1-74; protein details: His6; label: internal 32P ([alpha-32P]ATP); probe letters rebuilt from the primers and the genome
T1 sequence (looked up): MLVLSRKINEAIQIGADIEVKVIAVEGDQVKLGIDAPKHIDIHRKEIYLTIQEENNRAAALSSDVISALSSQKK

GGUAGCCGGGAGGAGGCGCAAAAGACUCAGCCAGUUACAAAAUAAGGGCACAAGGACGUGCCUUAACAACAUAUUCAGGGAGGAACAAAACAAUGAGAAUU [hag 5' UTR transcript +1 to +100]
binding result [1]: binds more weakly | binding result (CsrA-WT-His6): binds more weakly
